Results reported in EP1396498A1, “A pair of polypeptides with specific and strong interaction” (Max-Planck-Gesellschaft zur Förderung der Wissenschaften …, priority 2002, dated 2004).
No constants are given. Whether binding was seen depends on the method and setting. Some entries that bind do so weakly or less than the wild type. Tags and fused reporters may be left off the sequences shown.

T1: δ-COP peptide arginine 242 to glycine 254 immobilized on agarose (S. cerevisiae (yeast))
T1 sequence (peptide, N-terminal cysteine coupled to agarose gel (SulfoLink)): CRAGHSATGGMKLG

T2: GST-L4 (S. cerevisiae (yeast))
T2 sequence: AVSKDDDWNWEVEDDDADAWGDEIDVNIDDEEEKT


Experiments:
[1] = molecular target: T1, δ-COP peptide arginine 242 to glycine 254 immobilized on agarose (S. cerevisiae (yeast)); test: peptide-agarose column with crude E. coli extract, glycine elution, SDS-PAGE and Coomassie
[2] = molecular target: T2, GST-L4 (S. cerevisiae (yeast)); test: peptide-agarose column with crude E. coli extract holding GST-L4, SDS-PAGE and Coomassie

Binder	binding [1]	binding [2]
AVSKDDDWNWEVEDDDADAWGDEIDVNIDDEEEKT (peptide, not shown: a dimerising Fc or GST) [GST-L4]	binds	
CRAGHSATGGMKLG (N-terminal cysteine coupled to agarose gel (SulfoLink)) [δ-COP peptide arginine 242 to glycine 254 immobilized on agarose]		binds
